Data taken from patent US20100144755A1 (Glaxo Group Limited, priority 2006, published 2010).
Some results were stated once for a whole list of compounds, not compound by compound.

By UniProt entry, the sequences of proteins in these tests, tags left out.
UniProt Q16539, whole entry: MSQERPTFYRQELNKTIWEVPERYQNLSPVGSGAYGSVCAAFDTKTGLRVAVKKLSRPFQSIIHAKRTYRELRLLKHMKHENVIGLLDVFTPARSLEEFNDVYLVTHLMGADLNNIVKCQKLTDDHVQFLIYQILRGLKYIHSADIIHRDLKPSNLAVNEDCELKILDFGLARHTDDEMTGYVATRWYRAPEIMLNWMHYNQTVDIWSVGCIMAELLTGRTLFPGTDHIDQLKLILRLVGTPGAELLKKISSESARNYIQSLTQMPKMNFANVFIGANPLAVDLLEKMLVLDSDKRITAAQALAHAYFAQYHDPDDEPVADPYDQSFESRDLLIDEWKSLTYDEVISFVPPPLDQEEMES

Tests used:
Recombinant human p38α = biological target: T1, Recombinant human p38α (Homo sapiens, UniProt Q16539); test: Time-resolved fluorescence resonance energy transfer (TR-FRET) kinase assay (standard and low volume); assay type: biochemical; design: key: active: a pIC50 of greater than 4.6 up to about a pIC50 of greater than 10.0; conditions: MKK6-activated p38α 100 pM, GST-ATF2 substrate; result in words
T1 construct: His; made in house
Experimental: Time-Resolved Fluorescence Resonance Energy Transfer Linase Standard Assay
(§1) Recombinant human p38α was expressed as a His-tagged protein. To activate this protein, 3 μM unactivated p38α was incubated in 200 mM Hepes pH 7.4, 625 mM NaCl, 1 mM DTT with 27 nM active MKK6 (Upstate), 1 mM ATP and 10 mM MgCl2 The activity of the MKK6-activated p38α was assessed using a time-resolved fluorescence resonance energy transfer (TR-FRET) assay.
Biotinylated-GST-ATF2 (residues 19-96, 400 nM final), ATP ([…]) and MgCl2 (5 mM final) in assay buffer (40 mM HEPES pH 7.4, 1 mM DTT) were added to wells containing 1 ul of various concentrations of compound or DMSO vehicle (3% final) in NUNC 384 well black plate. The reaction was initiated by the addition of MKK6-activated p38 (100 pM final) to give a total volume of 30 ul. The reaction was incubated for 120 minutes at room temperature, then terminated by the addition of 15 μl of 100 mM EDTA pH 7.4. Detection reagent (15 μl) in buffer (100 mM HEPES pH 7.4, 150 mM NaCl, 0.1% w/v BSA, 1 mM DTT) containing antiphosphothreonine-ATF2-71 polyclonal antibody (Cell Signalling Technology, Beverly Mass., USA) labelled with W-1024 europium chelate (Wallac O Y, Turku, Finland), and APC-labelled streptavidin (Prozyme, San Leandro, Calif., USA) was added and the reaction was further incubated for 60 minutes at room temperature. The degree of phosphorylation of GST-ATF2 was measured using a Packard Discovery plate reader (Perkin-Elmer Life Sciences, Pangbourne, UK) as a ratio of specific 665 nm energy transfer signal to reference europium 620 nm signal.
Time-Resolved Fluorescence Resonance Energy Transfer Kinase Low Volume Assay
as §1, with “pH7.4,” for “pH 7.4,”
Biotinylated-GST-ATF2 (residues 19-96, 400 nM final), ATP (125 μM final) and MgCl2 (5 mM final) in assay buffer (40 mM HEPES pH 7.4, 1 mM DTT) were added to wells containing 0.1 μl of various concentrations of compound or DMSO vehicle (1.7% final) in Greiner low volume 384 well black plate. The reaction was initiated by the addition of MKK6-activated p38α (100 pM final) to give a total volume of 6 μl. The reaction was incubated for 120 minutes at room temperature, then terminated by the addition of 3 μl of detection reagent in buffer (100 mM HEPES pH 7.4, 150 mM NaCl, 0.1% w/v BSA, 1 mM DTT, 100 mM EDTA) containing antiphosphothreonine-ATF2-71 polyclonal antibody (Cell Signalling Technology, Beverly Mass., USA) labelled with W-1024 europium chelate (Wallac O Y, Turku, Finland), and APC-labelled streptavidin (Prozyme, San Leandro, Calif., USA). The reaction was further incubated for 60 minutes at room temperature. The degree of phosphorylation of GST-ATF2 was measured using a BMG Rubystar plate reader (BMG, UK) as a ratio of specific 665 nm energy transfer signal to reference europium 620 nm signal.
It is noted that there are two assay formats shown above for the Time-resolved fluorescence resonance energy transfer kinase assay. The only difference between these two assays is the volume used and the plate type. […] The results described herein may have been performed in either assay format and are not differentiated as to which.

[1] = system: TNF-stimulated IL8 production by human neutrophils; test: TNF-stimulated IL-8 production from human neutrophils; assay type: cell-based; conditions: TNF 100 ng/ml, about 20 hrs, screened up to 100 nM; result in words;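 also: IL-8 in cell-free supernatant quantified by sandwich ELISA, inhibition calculated against a compound-free control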

Row | SMILES | activity (pIC50) in TR-FRET p38α kinase assay (Recombinant human p38α) | activity (IC50) against TNF-stimulated IL-8 production from human neutrophils [1]
1 | Cc1ccc(C(=O)Nc2ccc(F)cc2)cc1-c1nc(NCCN(C)C)nc2c1ccc(=O)n2-c1c(F)cccc1F [Example 112, 3-(8-(2,6-difluorophenyl)-2-{[2-(dimethylamino)ethyl]amino}-7-oxo-7,8-dihydropyrido[2,3-d]pyrimidin-4-yl)-N-(4-fluorophenyl)-4-methylbenzamide] | active | active
2 | Cc1ccc(C(=O)NC(C)C)cc1-c1nc(NCCN(C)C)nc2c1ccc(=O)n2-c1c(F)cccc1F [Example 117, 3-(8-(2,6-difluorophenyl)-2-{[2-(dimethylamino)ethyl]amino}-7-oxo-7,8-dihydropyrido[2,3-d]pyrimidin-4-yl)-4-methyl-N-(1-methylethyl)benzamide] | active | active
3 | CCN(CC)CCCNc1nc(-c2cccc(C(=O)Nc3ccccc3)c2C)c2ccc(=O)n(-c3c(F)cccc3F)c2n1 [Example 151, 3-[2-{[3-(diethylamino)propyl]amino}-8-(2,6-difluorophenyl)-7-oxo-7,8-dihydropyrido[2,3-d]pyrimidin-4-yl]-2-methyl-N-phenylbenzamide] | active | active
4 | CNC(=O)c1ccc(C)c(-c2nc(N3CCC(N4CCC(C)CC4)CC3)nc3c2ccc(=O)n3-c2c(F)cccc2F)c1 [Example 164, 3-[8-(2,6-difluorophenyl)-2-(4-methyl-1,4′-bipiperidin-1′-yl)-7-oxo-7,8-dihydropyrido[2,3-d]pyrimidin-4-yl]-N,4-dimethylbenzamide] | active | active
5 | Cc1ccc(C(=O)N(C)C)cc1-c1nc(N2CCC(N3CCC(C)CC3)CC2)nc2c1ccc(=O)n2-c1c(F)cccc1F [Example 165, 3-[8-(2,6-difluorophenyl)-2-(4-methyl-1,4′-bipiperidin-1′-yl)-7-oxo-7,8-dihydropyrido[2,3-d]pyrimidin-4-yl]-N,N,4-trimethylbenzamide] | active | active
6 | CCCNC(=O)c1ccc(C)c(-c2nc(N3CCC(N4CCC(C)CC4)CC3)nc3c2ccc(=O)n3-c2c(F)cccc2F)c1 [Example 166, 3-[8-(2,6-difluorophenyl)-2-(4-methyl-1,4′-bipiperidin-1′-yl)-7-oxo-7,8-dihydropyrido[2,3-d]pyrimidin-4-yl]-4-methyl-N-propylbenzamide] | active | active
7 | CCCCNC(=O)c1ccc(C)c(-c2nc(N3CCC(N4CCC(C)CC4)CC3)nc3c2ccc(=O)n3-c2c(F)cccc2F)c1 [Example 167, N-butyl-3-[8-(2,6-difluorophenyl)-2-(4-methyl-1,4′-bipiperidin-1′-yl)-7-oxo-7,8-dihydropyrido[2,3-d]pyrimidin-4-yl]-4-methylbenzamide] | active | active
8 | Cc1ccc(C(=O)NCC(C)C)cc1-c1nc(N2CCC(N3CCC(C)CC3)CC2)nc2c1ccc(=O)n2-c1c(F)cccc1F [Example 168, 3-[8-(2,6-difluorophenyl)-2-(4-methyl-1,4′-bipiperidin-1′-yl)-7-oxo-7,8-dihydropyrido[2,3-d]pyrimidin-4-yl]-4-methyl-N-(2-methylpropyl)benzamide] | active | active
9 | Cc1ccc(C(=O)NC2CCCC2)cc1-c1nc(N2CCC(N3CCC(C)CC3)CC2)nc2c1ccc(=O)n2-c1c(F)cccc1F [Example 169, N-cyclopentyl-3-[8-(2,6-difluorophenyl)-2-(4-methyl-1,4′-bipiperidin-1′-yl)-7-oxo-7,8-dihydropyrido[2,3-d]pyrimidin-4-yl]-4-methylbenzamide] | active | active
10 | Cc1ccc(C(=O)NC(C)(C)C)cc1-c1nc(N2CCC(N3CCC(C)CC3)CC2)nc2c1ccc(=O)n2-c1c(F)cccc1F [Example 170, 3-[8-(2,6-difluorophenyl)-2-(4-methyl-1,4′-bipiperidin-1′-yl)-7-oxo-7,8-dihydropyrido[2,3-d]pyrimidin-4-yl]-N-(1,1-dimethylethyl)-4-methylbenzamide] | active | active
11 | Cc1ccc(C(=O)NCC(F)(F)F)cc1-c1nc(N2CCC(N3CCC(C)CC3)CC2)nc2c1ccc(=O)n2-c1c(F)cccc1F [Example 172, 3-[8-(2,6-difluorophenyl)-2-(4-methyl-1,4′-bipiperidin-1′-yl)-7-oxo-7,8-dihydropyrido[2,3-d]pyrimidin-4-yl]-4-methyl-N-(2,2,2-trifluoroethyl)benzamide] | active | active
12 | CCNC(=O)c1ccc(C)c(-c2nc(N3CCC(N4CCC(C)CC4)CC3)nc3c2ccc(=O)n3-c2c(F)cccc2F)c1 [Example 173, 3-[8-(2,6-difluorophenyl)-2-(4-methyl-1,4′-bipiperidin-1′-yl)-7-oxo-7,8-dihydropyrido[2,3-d]pyrimidin-4-yl]-N-ethyl-4-methylbenzamide] | active | active
13 | Cc1ccc(C(=O)Nc2ccc(F)cc2)cc1-c1nc(N2CCC(N3CCC(C)CC3)CC2)nc2c1ccc(=O)n2-c1c(F)cccc1F [Example 174, 3-[8-(2,6-difluorophenyl)-2-(4-methyl-1,4′-bipiperidin-1′-yl)-7-oxo-7,8-dihydropyrido[2,3-d]pyrimidin-4-yl]-N-(4-fluorophenyl)-4-methylbenzamide] | active | active
14 | Cc1ccc(C(=O)NC2CCC2)cc1-c1nc(N2CCC(N3CCC(C)CC3)CC2)nc2c1ccc(=O)n2-c1c(F)cccc1F [Example 175, N-cyclobutyl-3-[8-(2,6-difluorophenyl)-2-(4-methyl-1,4′-bipiperidin-1′-yl)-7-oxo-7,8-dihydropyrido[2,3-d]pyrimidin-4-yl]-4-methylbenzamide] | active | active
15 | Cc1ccc(C(=O)NCC2CC2)cc1-c1nc(N2CCC(N3CCC(C)CC3)CC2)nc2c1ccc(=O)n2-c1c(F)cccc1F [Example 176, N-(cyclopropylmethyl)-3-[8-(2,6-difluorophenyl)-2-(4-methyl-1,4′-bipiperidin-1′-yl)-7-oxo-7,8-dihydropyrido[2,3-d]pyrimidin-4-yl]-4-methylbenzamide] | active | active
16 | Cc1ccc(C(=O)NCCF)cc1-c1nc(N2CCC(N3CCC(C)CC3)CC2)nc2c1ccc(=O)n2-c1c(F)cccc1F [Example 177, 3-[8-(2,6-difluorophenyl)-2-(4-methyl-1,4′-bipiperidin-1′-yl)-7-oxo-7,8-dihydropyrido[2,3-d]pyrimidin-4-yl]-N-(2-fluoroethyl)-4-methylbenzamide] | active | active
